The assay is described as follows: qHTS Assay for Lipid Storage Modulators in Drosophila S3 Cells.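 As to cell number change: cells counted by Cell Tracker Red CMTPX staining in the red channel.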 The settings on record: BODIPY lipid droplet fluorescence, 18-24 h; for cell number change: measured here: cell count max response, cells fed with added oleic acid. In short, it runs like this:
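Drosophila S3 cells got compounds at several concentrations plus oleic acid (400 uM solution). Laser-scanning cytometry with 488 nm excitation read lipid droplets at 500-530 nm and cells at 575-640 nm. Percent activity was relative to 20 uM Triacsin C.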

[1] abbreviates: measured here: cell number channel AC50, cells fed with added oleic acid.
Setting [2] is: measured here: lipid fluorescence (Fed channel) AC50, cells fed with added oleic acid.

Some of the results follow. Further columns of the screen follow, without active or inactive calls. Compounds called inactive in the main read-out are mostly missing here. Words in brackets tell the shape of the fitted curve; partial curves, single points and poor fits give uncertain potencies.

In general, AC50 refers to the concentration at which the activity in the assay is half-maximal. In the case of `Cc1ccc(Cn2c(=N)n(CC(O)COc3ccccc3)c3ccccc32)cc1` (stereo not given), the cell number change is -86%. Besides, the half-maximal activity concentration (AC50) under setting [1] was 29.1 µM [falling, single point].
On to `Cc1cc(=O)oc2cc(OCC3CC(c4ccccc4)=NO3)ccc12` (stereo not given), for which the AC50 is, setting by setting: under setting [1], 1.64 µM [rising, partial curve]; under setting [2], 2.06 µM [rising, full curve].
Consider `CSc1nc2ccccc2n1Cc1cccc(F)c1`, for which the AC50 under setting [2] is 0.13 µM [falling, full curve, poor fit].
Turning to `CN(CC(=O)O)S(=O)(=O)c1ccc2c(c1)NC(=O)CC(=O)N2`, the cell number change turned out to be 74.1%. For the same compound, the concentration at half-maximal activity (AC50) under setting [2] is 18.4 µM [rising, partial curve, poor fit].
In the case of `Cc1cccc(N(C(=O)c2snc(C(N)=O)c2N)C(C(=O)NC2CCCC2)c2ccco2)c1` (stereo not given), the cell number change is 3.23%. For the same compound, under setting [2], the concentration at half-maximal activity (AC50) is 29.1 µM [falling, single point].
With `COc1ccc(S(=O)(=O)N2CCN(Cc3ccc4c(c3)OCO4)CC2)cc1F`, the cell number change stood at 28.2%. The concentration at half-maximal activity (AC50) under setting [2] is 5.17 µM [falling, single point].
As to `CCN(CC)S(=O)(=O)c1cc(NC(=O)CNc2cccc(S(=O)(=O)N3CCOCC3)c2)ccc1C`, the AC50 under setting [2] is 9.2 µM [falling, partial curve].
With `CCC(C(=O)Nc1cc(OC)c(NC(=O)c2ccccc2)cc1OC)c1ccccc1` (stereo not given), the cell number change is -23.6%.
Consider `CCCOc1ccc(C(=O)N2CCN(c3ccc(NC(=O)CC)cc3Cl)CC2)cc1`, for which the cell number change was -41.5%. Moreover, under setting [1], the AC50 is 9.2 µM [falling, partial curve]. Moreover, the AC50 under setting [2] is 3.66 µM [falling, full curve].
For `O=C(NCCC(=O)N(Cc1ccco1)Cc1cccs1)c1ccccc1Cl`, the cell number change was -7.78%. Besides, the AC50 under setting [2] was 1.3 µM [falling, full curve, poor fit].
On to `COc1cc(Cl)ccc1OCc1cc(C(=O)N2CCC(N(C)C)C2)no1` (stereo not given), for which the cell number change was 4.28%.
Turning to `O=[N+]([O-])c1cc(C=Nc2cccc3c(O)cccc23)ccc1Cl`, the cell number change was -45.7%. The concentration at half-maximal activity (AC50) under setting [1] was 16.4 µM [falling, partial curve, poor fit].
In the case of `Cc1ccc(OCC(=O)Nc2ccc(S(=O)(=O)Nc3cc(C)nc(C)n3)cc2)cc1`, the cell number change was determined as 1.53%.
`CC(C)N(Cc1ccccc1)C(=O)CN1C(=O)NC(Cc2ccccc2)(c2ccccc2)C1=O` (stereo not given): the AC50 under setting [1] is 5.17 µM [rising, single point].
Turning to `Cc1ccc(CNC(=O)C(=O)NCCC2CCCCN2S(=O)(=O)c2cccs2)cc1` (stereo not given), the cell number change is -45.3%. Further, the AC50 under setting [1] is 18.4 µM [falling, single point]. Further, the AC50 under setting [2] is 4.61 µM [falling, full curve, poor fit].
For the compound `COc1ccc(/C=C2\Sc3ccc(C(=O)N4CCOCC4)cc3N(C)C2=O)cc1`, the cell number change was found to be 57.5%. Under setting [1], the AC50 was 29.1 µM [rising, single point]. In addition, the concentration at half-maximal activity (AC50) under setting [2] is 5.17 µM [rising, full curve, poor fit].
Turning to `O=c1c2cc(N3CCOCC3)ccc2[nH]c(=S)n1Cc1ccco1`, the cell number change is -15.9%. For the same compound, under setting [2], the concentration at half-maximal activity (AC50) was 0.291 µM [rising, full curve, poor fit].
For the compound `Cc1ccc2c(C(=O)CN3CCSCC3)c(C)[nH]c2c1`, the half-maximal activity concentration (AC50) under setting [2] was 2.31 µM [rising, partial curve].
In the case of `CCOc1ccc(NC(=O)c2ccc(N3CC4CC(C3)c3cccc(=O)n3C4)c(NC(=O)c3cccnc3)c2)cc1` (stereo not given), the cell number change was found to be 28.2%. Also, the AC50 under setting [2] is 10.3 µM [rising, partial curve].
In the case of `CCOn1c(=O)c(-c2ccc(OC)c(OC)c2)[n+]([O-])c2ccccc21`, the cell number change came out at 14.4%. For the same compound, the concentration at half-maximal activity (AC50) under setting [2] is 29.1 µM [rising, single point].
Consider `OC(CN1CCCCC1)Cn1c2ccccc2c2cc(Br)ccc21` (stereo not given), for which the cell number change was determined as 9.01%.
With `O=C(Nc1ccc2nsnc2c1)c1cccs1`, the cell number change was 39.7%. Further, the AC50 under setting [1] is 4.61 µM [rising, partial curve].
Take `c1ccc(-c2cnn3c(-c4ccccc4)c(-c4ccccc4)nc3n2)cc1`: under setting [2], the AC50 was 2.91 µM [falling, full curve].
Turning to `CCOc1ncccc1C(=O)OCc1ccc(Cl)cc1`, the cell number change is -65.7%. The AC50 under setting [1] is 32.6 µM [falling, single point]. Under setting [2], the half-maximal activity concentration (AC50) was 3.26 µM [rising, partial curve].
Take `Cc1cc2c(c(=O)n1Cc1ccccn1)C(C(C)C)C(C#N)=C(N)O2` (stereo not given): the AC50 under setting [2] is 1.46 µM [rising, full curve].
Consider `CCCOC(c1ccccc1)(c1ccc(C(F)(F)F)cc1)C(Oc1nc(C)cc(C)n1)C(=O)O` (stereo not given), for which the cell number change was -9.62%. In addition, under setting [2], the AC50 is 29.1 µM [rising, single point].
Take `CCCOc1ccc(C(=O)Nc2cccnc2)cc1`: the cell number change was 5.28%. Further, the AC50 under setting [2] was 29.1 µM [falling, single point].
Consider `COc1cc(CNCCSc2nnnn2C)cc(OC)c1OC`, for which the cell number change was found to be 27.3%. The concentration at half-maximal activity (AC50) under setting [2] is 6.51 µM [falling, single point].
For `CSc1nnc(-c2sc3cc(C(F)(F)F)cnc3c2-c2cccnc2)n1C`, the cell number change turned out to be 38.1%. Besides, the concentration at half-maximal activity (AC50) under setting [1] was 3.66 µM [rising, partial curve]. In addition, under setting [2], the AC50 is 6.51 µM [rising, single point].
On to `COc1ccc2oc(=O)c(-c3nc(C)cs3)cc2c1`, for which the cell number change amounted to 10%.
Turning to `CCSc1ncc(Cl)c(C(=O)N(Cc2ccc(N(C)C)cc2)C2CCS(=O)(=O)C2)n1` (stereo not given), the AC50 is 3.66 µM [rising, partial curve, poor fit] under setting [1] and 3.66 µM [rising, partial curve] under setting [2].
As for `CC1CCCC(NC(=S)NC(=O)c2ccccc2Br)C1C` (stereo not given), the concentration at half-maximal activity (AC50) under setting [2] was 32.6 µM [falling, single point].
`COc1ccc2cc(C#N)c(SCC(=O)NNC(=O)Cc3ccccc3)nc2c1`: the cell number change was 32.4%. Besides, the half-maximal activity concentration (AC50) under setting [1] was 0.82 µM [rising, full curve]. Further, under setting [2], the concentration at half-maximal activity (AC50) was 3.26 µM [rising, partial curve].
Turning to `S=c1[nH]nc(-c2cc(-c3ccco3)[nH]n2)n1-c1cccc2ccccc12`, the cell number change is -32.3%.
With `COc1ccc(F)cc1S(=O)(=O)N1CC(C)CC(C)C1` (stereo not given), the cell number change is -113%. Besides, the AC50 under setting [1] was 32.6 µM [falling, partial curve, poor fit].
Take `Cc1ccc(C)c(CN2C(=O)C(C)Oc3ccc(C)cc32)c1` (stereo not given): the cell number change is 27.8%. The half-maximal activity concentration (AC50) under setting [2] was 0.259 µM [rising, partial curve].
Regarding `Cc1nn(-c2ccccc2)c2sc(C(=O)NNC(=O)COc3ccccc3)cc12`, the cell number change came out at 7.99%.
Regarding `Cc1ccccc1C(=O)OCC(=O)N(C)c1ccccc1`, the cell number change came out at 21.1%. In addition, the concentration at half-maximal activity (AC50) under setting [2] was 5.62 µM [rising, single point].
Consider `Cc1cc(-c2nnc(SCC(=O)Nc3ccccc3C(F)(F)F)n2N)n[nH]1`, for which the cell number change was -2.29%.
Turning to `COC(=O)c1ccc(Nc2c([N+](=O)[O-])ccc3nonc23)cc1`, the cell number change came to 44.4%. In addition, the AC50 under setting [1] was 29.1 µM [rising, single point].
For `O=C1NN(c2ccccc2)C(=O)/C1=C\c1cccc(OC(=O)c2cccs2)c1`, the cell number change came out at 18.5%. The concentration at half-maximal activity (AC50) under setting [2] was 4.61 µM [falling, single point].
As to `Cc1nc2oc3c(NCc4ccccc4)ncnc3c2c2c1COC(C)(C)C2`, the cell number change was found to be 8.41%. The AC50 under setting [2] was 0.82 µM [rising, partial curve].
`COc1cccc(NC(=O)CN(C)C(=O)c2cc(S(=O)(=O)N3CCCCCC3)ccc2OC)c1`: the cell number change was -7.12%. Besides, under setting [2], the AC50 was 0.13 µM [falling, full curve, poor fit].
On to `CCOc1ccc(S(=O)(=O)Nc2cc(Sc3ncn[nH]3)c3oc(=O)sc3c2)cc1`, for which the cell number change was -8.75%. The half-maximal activity concentration (AC50) under setting [2] was 1.3 µM [falling, full curve].
Consider `O=C(Nc1cccc2c1CCCC2)c1ccccc1Cl`, for which the cell number change was -2.89%. Moreover, the half-maximal activity concentration (AC50) under setting [2] is 29.1 µM [rising, single point].
Take `O=C(Nc1ccccc1)N1C(=O)C2(OCCO2)c2ccccc21`: the cell number change is -189%. Under setting [1], the AC50 was 29.1 µM [falling, partial curve]. Moreover, the half-maximal activity concentration (AC50) under setting [2] is 23.1 µM [falling, partial curve].
With `CCc1ccc2nc(SCC(=O)N(CC)CC)c(C#N)cc2c1`, the cell number change is -1.29%. Also, under setting [1], the AC50 is 3.66 µM [rising, single point]. Moreover, the AC50 under setting [2] was 4.11 µM [rising, full curve, poor fit].
Take `COc1ccc(C(c2nnnn2C2CCCC2)N2CCN(C(=O)c3ccco3)CC2)cc1OC` (stereo not given): the cell number change was 15.4%.
Take `CCCCC1(Cc2ccc(OC)c([N+](=O)[O-])c2)C(=O)N(c2ccccc2)N(c2ccccc2)C1=O`: the AC50 is 2.91 µM [rising, partial curve] under setting [1] and 23.1 µM [falling, single point] under setting [2].
With `CCOC1=C/C(=C/c2c(N)n3nc(S(=O)(=O)CC)sc3nc2=O)C=CC1=O`, the cell number change is -29%. Moreover, under setting [2], the AC50 is 29.1 µM [falling, single point].
Regarding `O=C(Nc1ccccc1-c1nc2ccccc2[nH]1)c1sc2ccccc2c1Cl`, the cell number change is -4.86%. Further, the AC50 under setting [2] was 6.51 µM [falling, partial curve, poor fit].
Consider `Cc1ccccc1C(=O)NNC(=O)c1cccn1C`, for which the cell number change was 2.72%. Besides, under setting [2], the AC50 is 0.0146 µM [falling, full curve, poor fit].
Turning to `Nc1nc(SCC(=O)Nc2cccc(Oc3ccccc3)c2)n[nH]1`, the cell number change was found to be 22%.
As to `Cc1nn(Cc2c(Cl)cccc2Cl)c(C)c1NC(=O)c1cc(C(C)C)on1`, the cell number change was -37.7%. Further, under setting [1], the AC50 was 16.4 µM [falling, single point].
For the compound `Cc1cc(=O)n2nc(N3CCC(C(=O)NCc4ccccc4)CC3)sc2n1`, the cell number change amounted to 0.567%. In addition, the half-maximal activity concentration (AC50) under setting [2] was 2.31 µM [rising, partial curve].
With `COCCn1nnnc1SCC(=O)c1ccc(F)cc1`, the cell number change came to 20.9%. Under setting [2], the concentration at half-maximal activity (AC50) is 13 µM [rising, single point].
Regarding `O=C(NC(=S)Nc1ccc(F)cc1)C1CCCCC1`, the cell number change was -2.93%.
`COc1cc(/C=C/CN2CCC(CO)(CC3CCCCO3)CC2)ccc1O` (stereo not given): the cell number change is -9.89%. In addition, the concentration at half-maximal activity (AC50) under setting [2] is 32.6 µM [falling, single point].
As for `CCNc1nc(NCC)n2c(SCC(=O)O)nnc2n1`, under setting [2], the AC50 was 23.1 µM [falling, partial curve].
Turning to `COC(=O)c1ccccc1NC(=O)CN1CCN(C(=O)c2ccco2)CC1`, the cell number change is 12.8%.
In the case of `CCCCCCCCC[n+]1cccc2c3ccccc3ccc21`, the cell number change is -24.4%. Besides, the concentration at half-maximal activity (AC50) under setting [1] was 4.11 µM [falling, partial curve, poor fit].
